Where a chain is given by its changes, count along the chain named. These are yes or no findings as the source states them, for the method shown. Some binding calls cover weakened binding; strength is not graded here. Sequences can lack the tags named with a protein. No end group written: not given here.

Experiment [1] addresses T1, MG10 (Gln213 to Ala231)-GST fusion protein (human).
T1 sequence: QPTMPWQDGPKQTSPSREA
The experiment in a line: Western blotting of GST fusion protein. (Immunoblotting shows a protein as a band on a membrane.)

Experiment [2] shares this target. The experiment in a line: SPR, Biacore 3000, MG10-GST immobilized. On the technique in general: Surface plasmon resonance follows binding to a sensor surface in real time, without labels.
For experiment [3] the target is unchanged. The experiment in a line: affinity column of immobilized MG10-GST fusion protein, CHO culture supernatant loaded.

B1: anti-human Mpl antibody VB22B IgG (antibody, V domains shown)
VH: QVQLQQSGPELVKPGASVKISCKASGYAFTNSWMNWVKQRPGKGLEWIGRIYPGDGETIYNGKFRVKATLTADKSSSTAYMDISSLTSEDSAVYFCARGYDDYSFAYWGQGTLVTVSA
VL: DIVMTQAAPSIPVTPGESVSISCRSSKSLLHSNGNTYLYWFLQRPGQSPQLLIYRMSNLASGVPDRFSGSGSGTAFTLRISRVEAEDVGVYYCMQHIEYPFTFGSGTKLEIK
notes: also called murine antibody VB22B
Regarding B1, the binding result in experiment [1] and in experiment [2] was “binds” each time.

B2: hVB22B p-z sc(Fv)2 (scFv)
chain: QVQLVQSGPEVKKPGASVKVSCKASGYTFTNSWMNWVRQRPGKGLEWMGRIYPGDGETIYNGKFRVRVTITADESTSTAYMELSSLRSEDTAVYYCARGYDDYSFAYWGQGTTVTVSSGGGGSGGGGSGGGGSDIVMTQSALSLPVTPGEPASISCRSSKSLLHSNGNTYLYWFQQKPGQSPQLLIYRMSNLASGVPDRFSGSGSGTAFTLKISRVEAEDVGVYYCMQHIEYPFTFGQGTKLEIKGGGGSGGGGSGGGGSQVQLVQSGPEVKKPGASVKVSCKASGYTFTNSWMNWVRQRPGKGLEWMGRIYPGDGETIYNGKFRVRVTITADESTSTAYMELSSLRSEDTAVYYCARGYDDYSFAYWGQGTTVTVSSGGGGSGGGGSGGGGSDIVMTQSALSLPVTPGEPASISCRSSKSLLHSNGNTYLYWFQQKPGQSPQLLIYRMSNLASGVPDRFSGSGSGTAFTLKISRVEAEDVGVYYCMQHIEYPFTFGQGTKLEIK
Consider B2, for which the binding result in experiment [3] was “binds”.

B3: hVB22B g-e sc(Fv)2 (scFv)
chain: B2 chain with M48V, F174Y, Q175L, M308V, F434Y, Q435L
In the case of B3, the binding entry in experiment [3] is recorded as “binds”.

B4: hVB22B e sc(Fv)2 (scFv)
chain: B2 chain with V37I, M48I, T113L, F174Y, Q175L, V297I, M308I, T373L, F434Y, Q435L
With B4, the binding entry in experiment [3] is listed as “binds”.

B5: hVB22B q-wz5 sc(Fv)2 (scFv)
chain: B2 chain with M48I, A141P, S181A, Q183R, M308I, A401P, S441A, Q443R
notes: Humanized sc(Fv)2 without Flag tag, purified on an MG10-GST column; also called humanized VB22B sc(Fv)2 (q-wz5)
B5: the binding result in experiment [3] and in experiment [2] was “binds” each time.

B6: hVB22B u2-wz4 sc(Fv)2 (scFv)
chain: B2 chain with M48I, E82Q, A141P, Q175L, A208D, M308I, E342Q, A401P, Q435L, A468D
notes: Humanized sc(Fv)2 without Flag tag, purified on an MG10-GST column; also called humanized VB22B sc(Fv)2 (u2-wz4)
For B6, the binding result in experiment [3] and in experiment [2] was “binds” throughout.

B7: VB22B sc(Fv)2 (scFv)
chain: QVQLQQSGPELVKPGASVKISCKASGYAFTNSWMNWVKQRPGKGLEWIGRIYPGDGETIYNGKFRVKATLTADKSSSTAYMDISSLTSEDSAVYFCARGYDDYSFAYWGQGTLVTVSAGGGGSGGGGSGGGGSDIVMTQAAPSIPVTPGESVSISCRSSKSLLHSNGNTYLYWFLQRPGQSPQLLIYRMSNLASGVPDRFSGSGSGTAFTLRISRVEAEDVGVYYCMQHIEYPFTFGSGTKLEIKGGGGSGGGGSGGGGSQVQLQQSGPELVKPGASVKISCKASGYAFTNSWMNWVKQRPGKGLEWIGRIYPGDGETIYNGKFRVKATLTADKSSSTAYMDISSLTSEDSAVYFCARGYDDYSFAYWGQGTLVTVSAGGGGSGGGGSGGGGSDIVMTQAAPSIPVTPGESVSISCRSSKSLLHSNGNTYLYWFLQRPGQSPQLLIYRMSNLASGVPDRFSGSGSGTAFTLRISRVEAEDVGVYYCMQHIEYPFTFGSGTKLEIK
notes: Single-chain (Fv)2 with 15-residue linkers, purified on anti-Flag gel (FLAG-tagged); also called murine VB22B sc(Fv)2; anti-human Mpl sc(Fv)2
As to B7, the binding result in experiment [2] is “binds”.
